Reference: patent US9493480B2, “Monomeric trioxane amide sulfur compounds” (THE JOHNS HOPKINS UNIVERSITY, priority 2011, dated 2016)
At least one structure is not confirmed: it was looked up by name or label, or the drawing left a doubt.

System: Plasmodium berghei, ANKA malaria strain
Assay: In vivo antimalarial efficacy, single oral dose of trioxane combined with mefloquine hydrochloride in P. berghei infected mice
Conditions: for survival (days) after infection, individual mice: mefloquine hydrochloride alone, four mice
Protocol: […] Rosenthal, A. S., et al., Malaria-infected Mice are Cured by a Single Oral Dose of New Dimeric Trioxane Sulfones Which are Also Selectively and Powerfully Cytotoxic to Cancer Cells. J. Med. Chem. 2009, 52, 1198-1203. Each of four mice in a group was treated orally 24 hours post infection with a single dose of 0.20 mL [(0.20 mL/1.07 mL)×0.64 mg=0.12 mg] of diluted trioxane solution, […] Alternatively, a single dose of 7.5 mg/kg of trioxane plus 15.0 mg/kg of mefloquine hydrochloride was used. The malariometrics used involved determining blood parasitemia levels, as well as monitoring the duration of animal survival compared to survival time of infected animals receiving no drug.
The average survival time of the malaria-infected animals receiving no drug was 6.8 days post infection. All of the infected mice in this study receiving the trioxane drug artemether (2b) plus mefloquine died on the average on day 18.8 post infection (Table 1, controls). Additionally, a single oral dose of artemether (6 mg/kg) plus lumefantrine (18 mg/kg) was not curative (see Table 1), with the mice dying an average of 12.5 days after infection. […]
A widely accepted indication of complete cure (i.e., 100% efficacy) is survival of animals to day 30 post infection with no detectable malaria parasites in the animals' blood at that time. It is important to note that the combination of the standard trioxane drug artemether (2b), with either mefloquine hydrochloride or lumefantrine, was not curative (Table 1, controls). […] While 3-fluoroanilide 12b was not curative, administration of 3-methylthioether 3-arteSanilide 12d at a dose of 7.5 mg/kg plus 15 mg/kg mefloquine hydrochloride achieved mouse survival through day 30 after infection; however, all four of the surviving mice appeared sick and had considerable parasitemia levels (25-50%). […] In addition, 3-arteSanilide 12d is more efficacious than 4-arteSanilide 12c. […] Replacing the sulfur atom in 12d with an oxygen atom afforded methyl ether 12p, which prolonged survival time to only 21.8 days after infection. […]

Row | SMILES | survival (days) after infection, individual mice (single oral dose 15 mg/kg) | survival (days) after infection, individual mice (single oral dose 18 mg/kg) | cure outcome (single oral dose: artemether 6 mg/kg + lumefantrine 18 mg/kg)
1 | Cl.OC(c1cc(C(F)(F)F)nc2c(C(F)(F)F)cccc12)C1CCCCN1 (stereo not drawn) [mefloquine, mefloquine hydrochloride, reference compound] | (14, 15, 15, 18) days | (16, 16, 20, 27) days | –
2 | CO[C@H]1O[C@@H]2O[C@@]3(C)CC[C@H]4[C@H](C)CC[C@@H]([C@H]1C)[C@@]24OO3 [artemether (2b), artemether, reference compound] | – | – | not curative
